From US20250127845A1, “MEDICINAL USES OF OLIGOPEPTIDES IN COMBINATION WITH AN ANTIANDROGEN” (HBC IMMUNOLOGY INC., priority 2022, published 2025)
Where “and” joins values, the source holds several entries; their conditions need not be identical. Equal entries are not always repeated.

Assays:
Assay type in all cases: cell-based, human
[1] = system: VCaP cells; assay: Clonogenic assay, VCaP cells
Procedure: (§1) Test Solutions. SPH test solutions were prepared by adding 10 μg, 40 μg, or 160 μg of SPH powder to 1 ml of DMEM containing 0.3% FBS+2% DMSO and sonicating for 10 min just prior to use. Bicalutamide, referred to herein as BIC, (Sigma-Aldrich, Catalog No. B9061) test solutions were prepared by adding 0.43 or 4.3 μg to 1 ml (1 μM and 10 μM) of DMEM containing 0.3% FBS+2% DMSO and sonicating for 10 min just prior to use. Enzalutamide, referred to herein as ENZ (Intas Pharmaceuticals, India), test solutions were prepared by serial dilution of a 1 mM stock solution (3% DMS in water) into culture medium.
Cell Culture. The C4 subline (CRL-3313™, RRID: CVCL 4783), which was derived from the human prostate carcinoma cell line LNCaP, was obtained from ATCC (Manassas, VA). C4, which is referred to herein as LNCaP, is an exemplary androgen receptor-positive (AR+ve) cell line that has an epithelial-like morphology and a low metastatic potential. The PC-3 cell line (CRL-1435, RRID: CVCL_0035) was obtained from ATCC (Manassas, VA). […]
(§2) Clonogenic Assay. […] The colonies were allowed to develop over 12 days, stained with crystal violet and automatically counted using a TC20 Automated Cell Counter (Bio Rad, Hercules, CA). […] Relative plating efficiencies were expressed as percentages relative to the plating efficiency of untreated cells and reported as the relative percent colony survival value. […]

[2] = system: VCaP-EnzR cells; assay: Clonogenic assay, VCaP-EnzR cells
Procedure: as §1
Cell Culture. The C4 subline (CRL-3313™, RRID: CVCL 4783), which was derived from the human prostate carcinoma cell line LNCaP, was obtained from ATCC (Manassas, VA). C4, which is referred to herein as LNCaP, is an exemplary androgen receptor-positive (AR+ve) cell line that has an epithelial-like morphology and a low metastatic potential. The PC-3 cell line (CRL-1435, RRID: CVCL_0035) was obtained from ATCC (Manassas, VA). PC-3 is an exemplary androgen receptor-negative (AR−ve) cell line that has an epithelial morphology and a high metastatic potential. The Vertebral-Cancer of the Prostate (VCaP) cell line was obtained from Sigma-Aldrich, USA (Catalog No. 06020201). VCaP is a human cell line with an epithelial morphology that was established from a metastatic prostate cancer lesion (Korenchuk et al., In Vivo, 15(2):163˜168, 2001). VCaP cells are androgen receptor-positive and express high levels of prostate-specific antigen. The VCaP-EnzR cell line was also obtained from Sigma-Aldrich, USA (Catalog No. SCC421). […]
as §2

[3] = system: ferritin heavy chain 1 (FTH1) mRNA; assay: FTH1 gene expression by qRT-PCR in VCaP cells; settings: 1.4 μM ENZ alone
Procedure: (§3) Gene Expression. LNCaP, PC-3, VCaP, and VCaP-EnzR cells were seeded in 24-well plates and maintained in RPMI1640 medium supplemented with 2 mmol/L L-glutamine. 100 U/mL penicillin, […] streptomycin, and 10% heat-inactivated fetal bovine serum at 37° C. in a humidified 5% CO2 atmosphere. […] SPH absent wells (DMSO 0.04%) were used as the negative control. All experiments were run in triplicate.
(§4) Samples were studied for expression of the ferritin heavy chain 1 (FTH1) and transferrin receptor 1 ([…]) genes. Total RNA was extracted from cell pellets using the UPzol reagent (Biotechrabbit), followed by DNAse treatment (DNAse TURBO) according to the manufacturers' protocols. Complementary DNA (cDNA) was synthesized with the High Capacity cDNA Reverse Transcription Kit (Applied Biosystems) using random hexamers. Gene expression levels were measured by qRT-PCR.
(§5) 1 μl of cDNA (corresponding to 50 ng of reverse transcribed RNA) was amplified by Qpcr (QuantStudio™ 6 Flex Real-Time PCR System), using TaqMan™ Universal PCR Master Mix (Catalog No. 4304437) and a TaqMan™ assay (Roche Molecular Systems, Inc., Pleasanton, CA). FTH1 and TFRC gene expression was estimated relative to expression of the housekeeping gene, beta-actin (ACTB), following the standard formula: 2-ΔCt. TaqMan probe IDs used include: (i) FTH1, Hs01694011_s1; (ii) TFRC, Hs00951083_m1; and (iii) ACTB, Hs01060665_g1. […]

[4] = system: transferrin receptor 1 (TFRC) mRNA; assay: TFRC gene expression by qRT-PCR in VCaP cells; settings: 1.4 μM ENZ alone
Procedure: as §3, §4, §5

[5] = system: ferritin heavy chain 1 (FTH1) mRNA; assay: FTH1 gene expression by qRT-PCR in VCaP-EnzR cells; settings: 47 μM ENZ alone
Procedure: as §3, §4, §5

[6] = system: transferrin receptor 1 (TFRC) mRNA; assay: TFRC gene expression by qRT-PCR in VCaP-EnzR cells; settings: 47 μM ENZ alone
Procedure: as §3, §4, §5

IC50 ([1]; Homo sapiens, VCaP clonogenic assay, read-out: IC50 of enzalutamide): 1.4 µM
IC50 ([2]; Homo sapiens, VCaP-ENZR, read-out: IC50 of enzalutamide): 47 µM
SMILES: CNC(=O)c1ccc(N2C(=S)N(c3ccc(C#N)c(C(F)(F)F)c3)C(=O)C2(C)C)cc1F [ENZ, enzalutamide, reference compound]
relative percent of cell survival ([1]; VCaP, 0.1 μM ENZ alone): 77%
relative percent of cell survival ([2]; VCaP-ENZR, 10 μM ENZ alone): 64%
relative survival ([2]; VCaP-EnzR, 47 μM enzalutamide monotreatment): 52%
FTH1 Fold Change (single replicates) [3]: 1.1 (2×) and 1.0
FTH1 Fold Change, Average [3]: 1.07
TFRC Fold Change (single replicates) [4]: 1.1 and 1.0 (2×)
TFRC Fold Change, Average [4]: 1.03
FTH1 Fold Change (single replicates) [5]: 0.7 and 0.8 (2×)
FTH1 Fold Change, Average [5]: 0.77
TFRC Fold Change (single replicates) [6]: 1.1 and 1.0 and 1.3
TFRC Fold Change, Average [6]: 1.13
